For 114 substances, growth estimate results are on record in the supplement of paper PMC5949888.

± gives the standard deviation of the averaged measurements. Most values lie at the floor of the assay. Slopes are relative: functional sequences can read slightly below zero. Bounds are passed on as bounds.

The series has as its system Saccharomyces cerevisiae PS128 hsf1 delta, HSF1(1-493) fusion. The series is described as follows: growth estimate (transactivation domain function in HSF1 fusion, heat-shock survival) (a.u. (slope of normalised read count over time)); higher = stronger growth at 37°C, i.e. more transactivation activity. As to conditions: library: random library. The method, then:
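Random 60-nt DNA library encoding peptides of up to 20 aa, fused to the C-terminus of yeast HSF1 residues 1-493 (C-terminal TAD deleted) and expressed from the native HSF1 promoter on a CEN plasmid in hsf1-deleted S. cerevisiae PS128. Cells were selected at 37°C on -trp 5-FOA plates for 0, 2, 4, 6 and 8 days and amplicons were sequenced. Growth estimate is the slope of a robust linear fit of total-sum-normalised read counts (normalised to the first time point) over time, using at least 2 replicates. Sequences are classed functional (TAD activity) above a threshold of -0.13, set from stop-codon control sequences.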
Regarding AGGLGRGSLIFEHNRINPPL, the growth estimate was less than -0.25.

As to HTYKTSVILEMTVRQIFLAH, the growth estimate was less than -0.25.

With MIFVKSAPLVL, the growth estimate is less than -0.25.

Turning to LYVPVGWSAVASNTVEHGGT, the growth estimate is less than -0.25.

On to TAILSPVRNRSLCPLRSLIL, for which the growth estimate was less than -0.25.

As for PDTYLSADRAQV, the growth estimate was less than -0.25.

KSAFPIFLLGGRPLQPESSM: the growth estimate is less than -0.25.

Regarding LRNLTVVPPCYLRRNTENRI, the growth estimate was less than -0.25.

Consider RVYPTHGFEARAREKVTV, for which the growth estimate was less than -0.25.

For KSYVLWMGCQRRLSWFAENE, the growth estimate was less than -0.25.

Consider GVTGLRVLSHPRSHRRRAMR, for which the growth estimate was less than -0.25.

Take SPTLFSHVTVKKHGRGSPRM: the growth estimate is less than -0.25.

In the case of QHMD, the growth estimate is less than -0.25.

Consider RDK, for which the growth estimate is less than -0.25.

With IGRWSFATKGATGSNKMLIT, the growth estimate was less than -0.25.

On to VETRDFLGDLGSI, for which the growth estimate was less than -0.25.

Turning to ESGLSARGERSPGLPFKGGL, the growth estimate is -0.245.

KEGGCSTEKLTWRNIAAK: the growth estimate is less than -0.25.

As to LPVRALTSIT, the growth estimate was less than -0.25.

QTGDLIRDFPLRNHSSTREA: the growth estimate was less than -0.25.

GQGGTRQDGFAYVWEQWKLR: the growth estimate is less than -0.25.

In the case of QVLWSADGSAVFMIYVSRLI, the growth estimate is less than -0.25.

With RLEDIGST, the growth estimate was less than -0.25.

In the case of CQCTAWKPKFL, the growth estimate was less than -0.25.

As for TMDTRYTHDSILPAKLSRLP, the growth estimate is less than -0.25.

On to FRSQRPPQSYLRDVLGSARA, for which the growth estimate is less than -0.25.

IGSDCKLHGVAYEGSRSLRH: the growth estimate was less than -0.25.

As to DFS, the growth estimate was less than -0.25.

In the case of VEKV, the growth estimate is less than -0.25.

DAFVREPSVAQ: the growth estimate is less than -0.25.

On to FHRKEVKGAPLHPPYPVISN, for which the growth estimate was less than -0.25.

For LTRRVI, the growth estimate is less than -0.25.

Take ATRHPSTLHWDGLSCTQGWA: the growth estimate is less than -0.25.

As for AIREGRNMRRQIRLVGGYIG, the growth estimate is less than -0.25.

IGLVYEYPGLVYRAEFW: the growth estimate was less than -0.25.

For GGLVLPHQVLISQIWVGTDY, the growth estimate was less than -0.25.

With LWGTPQ, the growth estimate is -0.243.

Take RRWGGMHGTDWMSTAAYKVR: the growth estimate is less than -0.25.

AFLTSESL: the growth estimate was less than -0.25.

Consider NGKEVLEPRIDRVQVGILGV, for which the growth estimate was less than -0.25.

Consider VVKGGVE, for which the growth estimate is less than -0.25.

For AYCVSARRVRWRPPLDRFIL, the growth estimate is less than -0.25.

As to HFTSRTARFRVDWLERL, the growth estimate was less than -0.25.

Turning to GRVFNVESVVGPSAHVLMGI, the growth estimate was less than -0.25.

Regarding TPCTFKLDNW, the growth estimate was less than -0.25.

For the substance EFLAELRVMRSLGIIVK, the growth estimate is less than -0.25.

Consider YLVKVSRIAATVGRPRGGSP, for which the growth estimate is less than -0.25.

In the case of KSFPRTRT, the growth estimate is less than -0.25.

Turning to VYMFKVWA, the growth estimate is less than -0.25.

For SDRRA, the growth estimate is less than -0.25.

VGVLSPCQTPLYRGWKTHHR: the growth estimate was less than -0.25.

As for MTGTFLS, the growth estimate is less than -0.25.

For the substance PGLSKVPGGVSAWEQKRRGP, the growth estimate was less than -0.25.

In the case of GGRLTTDRY, the growth estimate was -0.239.

For ESPKDRRGKYYAAPADAWAA, the growth estimate was less than -0.25.

For CYTRPSRCHVCSSAWANSIG, the growth estimate was less than -0.25.

Take DGRGQLMRFWDGTCSNLYSI: the growth estimate was less than -0.25.

Turning to RDIHLKQQIKGR, the growth estimate is less than -0.25.

Turning to SVHLSVTDYSPSDKAGRQHS, the growth estimate was less than -0.25.

TATFGKGTKS: the growth estimate was less than -0.25.

As to GIGGDLHSGRRQFCPRSTPH, the growth estimate is less than -0.25.

In the case of LDS, the growth estimate was less than -0.25.

LFNAPLD: the growth estimate is less than -0.25.

For the substance VVVS, the growth estimate is less than -0.25.

With AKYYPQGTGDDRHCNYG, the growth estimate is less than -0.25.

As for GVCSCVKSRPTASASLSVLF, the growth estimate is less than -0.25.

LSS: the growth estimate is less than -0.25.

On to TSRDSDWCILGFSIFVHEML, for which the growth estimate is less than -0.25.

For the substance LQHPKIVGRSPFPPLRPPCL, the growth estimate is less than -0.25.

For the substance PQAGGT, the growth estimate is less than -0.25.

Regarding AFGAFPASDEGSWTTFVYGI, the growth estimate is less than -0.25.

Turning to LDVPCIDEKLVYGQANWAAP, the growth estimate is less than -0.25.

Consider LCHWSFTMVT, for which the growth estimate was less than -0.25.

Consider DAPEQSMNLSVSRQPVIDCA, for which the growth estimate is less than -0.25.

For WGGSLVTSLTSFVHLGSSAY, the growth estimate is less than -0.25.

As to FAPCESPFPAVG, the growth estimate was less than -0.25.

In the case of RTHGWISDGNRRIQVVAPIT, the growth estimate is less than -0.25.

Take SFLGRHRNPWFSRGET: the growth estimate was less than -0.25.

Take FYQRDTDAPYE: the growth estimate is less than -0.25.

For FGCNCIDA, the growth estimate is less than -0.25.

Turning to EVSGLEPSPVYVHPRTTN, the growth estimate was less than -0.25.

In the case of VNRRGGLERIHFPSVRHSPS, the growth estimate is less than -0.25.

Turning to KLEVGRVLIWFLSWIPRICD, the growth estimate is less than -0.25.

QGAYMGTGIESVSSEDIENS: the growth estimate is less than -0.25.

SWACCAQLRAFLVATR: the growth estimate was less than -0.25.

With SGEEQKVGLM, the growth estimate was -0.245.

Take CKGLQSRVCYFGDCAVCMDP: the growth estimate was less than -0.25.

YTGFARYRTRAEQTVGRYAS: the growth estimate was less than -0.25.

In the case of FYQLMTDSTRTPQTPWSSV, the growth estimate is less than -0.25.

On to GGERSMRHNVTAIYECALLT, for which the growth estimate was less than -0.25.

Turning to SAPRLGGTGNVFSNL, the growth estimate is less than -0.25.

Take HWLGRCSMIRGR: the growth estimate is less than -0.25.

On to VCRARKASLGST, for which the growth estimate was less than -0.25.

In the case of IQITPSARKWCGPNLVFCIE, the growth estimate was less than -0.25.

Take HRSNAYQHCRSGRPGRAVKD: the growth estimate was less than -0.25.

Take FFVRNQWTSDQRLYTVVYLA: the growth estimate is less than -0.25.

As to VGTLTVVW, the growth estimate was -0.245.

Regarding KGGQTKVSRPPSIGLPRCSH, the growth estimate is less than -0.25.

Turning to VGG, the growth estimate was less than -0.25.

LYDSRDTSICDCRPLTPTPP: the growth estimate is less than -0.25.

With TRVTYAALLTQEARAALTLA, the growth estimate was less than -0.25.

In the case of KGD, the growth estimate is -0.248 ± 0.003.

On to PDSNWFFFYT, for which the growth estimate was less than -0.25.

Regarding WPRY, the growth estimate is less than -0.25.

Consider FVKVPDC, for which the growth estimate was less than -0.25.

Regarding QLGLVFNSKLRSSVAVPCVC, the growth estimate was less than -0.25.

As for RIKCK, the growth estimate is less than -0.25.

As to GWIVK, the growth estimate was less than -0.25.

Regarding FRPGSASTIVVTGAGCA, the growth estimate is less than -0.25.

VWYASECWGQLGRER: the growth estimate was less than -0.25.

Turning to ETSWSGCADCALISHVQPPR, the growth estimate is less than -0.25.

On to ELLMVERSDIWRALF, for which the growth estimate is less than -0.25.

Consider ILYHDDGMV, for which the growth estimate was less than -0.25.

For RIVVVSCGQTETHL, the growth estimate is less than -0.25.
